{"source": "PubChem BioAssay AID652243 (Drosophila RNAi Screening Center, 2013)", "purpose": "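Fly genes required for human androgen receptor driven transcription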 (primary screen)", "system": "Drosophila S2R+ cells", "reagent": "long dsRNA against Drosophila genes", "time to read-out": "72 h (48 h, then 24 h hormone)", "challenge": "synthetic androgen R1881 at 10 nM for 24 h", "measured": "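Firefly light from an androgen-responsive reporter and Renilla control light per well, raw and unnormalised, for each of two replicates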", "direction": "firefly reporter light: higher = more light from androgen-responsive reporter; Renilla control light: higher = more constitutive control signal (cell number, transfection)", "rule for the call": "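Across duplicate plates, a knock-down whose log firefly/Renilla ratio shifted a set fold down or up from the GFP/LacZ control mean was a hit; the downward cut appears as both 1.5 and 3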", "calls": "active = hit: reporter lowered or raised; inactive = no hit", "note": "The screen tested about 24,000 reagents; this is a random part of those with a known target gene and a result. In the full data, 246 (1%) were called active. 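Plates not normalised; calls are printed but the firefly/Renilla ratio behind them is not deposited; fold cut for lowering reported inconsistently.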 The raw values are shown without normalisation. Reagents against one gene are numbered here. Not stated in the record: the amount of reagent."}
{"predicted target": "Octbeta2R", "reagent no.": 1, "firefly reporter light, replicate 1": 4.43e5, "firefly reporter light, replicate 2": 2.96e5, "Renilla control light, replicate 1": 2.35e5, "Renilla control light, replicate 2": 2.36e5, "activity call": "inactive"}
{"predicted target": "Octbeta2R", "reagent no.": 2, "firefly reporter light, replicate 1": 1.38e5, "firefly reporter light, replicate 2": 1.22e5, "Renilla control light, replicate 1": 2.05e6, "Renilla control light, replicate 2": 1.85e6, "activity call": "inactive"}
{"predicted target": "Octbeta2R", "reagent no.": 3, "firefly reporter light, replicate 1": 1.57e5, "firefly reporter light, replicate 2": 1.25e5, "Renilla control light, replicate 1": 1.71e6, "Renilla control light, replicate 2": 1.34e6, "activity call": "inactive"}
{"predicted target": "Octbeta2R", "reagent no.": 4, "firefly reporter light, replicate 1": 5.37e5, "firefly reporter light, replicate 2": 5.59e5, "Renilla control light, replicate 1": 5.88e5, "Renilla control light, replicate 2": 4.87e5, "activity call": "inactive"}
{"predicted target": "Octbeta2R", "reagent no.": 5, "firefly reporter light, replicate 1": 3.04e5, "firefly reporter light, replicate 2": 2.63e5, "Renilla control light, replicate 1": 1.19e6, "Renilla control light, replicate 2": 8.06e5, "activity call": "inactive"}
{"predicted target": "Uck", "reagent no.": 1, "firefly reporter light, replicate 1": 1.77e5, "firefly reporter light, replicate 2": 2.29e5, "Renilla control light, replicate 1": 2.31e6, "Renilla control light, replicate 2": 2.26e6, "activity call": "inactive"}
{"predicted target": "Uck", "reagent no.": 2, "activity call": "inactive"}

Next part, starting with the last 2 of the part before.
{"predicted target": "Uck", "reagent no.": 1, "firefly reporter light, replicate 1": 1.77e5, "firefly reporter light, replicate 2": 2.29e5, "Renilla control light, replicate 1": 2.31e6, "Renilla control light, replicate 2": 2.26e6, "activity call": "inactive"}
{"predicted target": "Uck", "reagent no.": 2, "activity call": "inactive"}
{"predicted target": "Pgk", "reagent no.": 1, "activity call": "inactive"}
{"predicted target": "Pgk", "reagent no.": 2, "firefly reporter light, replicate 1": 7.22e5, "firefly reporter light, replicate 2": 6.16e5, "Renilla control light, replicate 1": 4.16e5, "Renilla control light, replicate 2": 3.37e5, "activity call": "inactive"}
{"predicted target": "Pgk", "reagent no.": 3, "firefly reporter light, replicate 1": 5.86e5, "firefly reporter light, replicate 2": 4.02e5, "Renilla control light, replicate 1": 6.85e5, "Renilla control light, replicate 2": 6.55e5, "activity call": "inactive"}
{"predicted target": "Arv1", "reagent no.": 1, "firefly reporter light, replicate 1": 1.97e5, "firefly reporter light, replicate 2": 2.32e5, "Renilla control light, replicate 1": 4.96e5, "Renilla control light, replicate 2": 5.52e5, "activity call": "inactive"}
{"predicted target": "CG43740", "reagent no.": 1, "firefly reporter light, replicate 1": 8.47e5, "firefly reporter light, replicate 2": 8.78e5, "Renilla control light, replicate 1": 7.78e5, "Renilla control light, replicate 2": 9.14e5, "activity call": "inactive"}
{"predicted target": "CG43740", "reagent no.": 2, "firefly reporter light, replicate 1": 8.35e5, "firefly reporter light, replicate 2": 9.29e5, "Renilla control light, replicate 1": 1.70e6, "Renilla control light, replicate 2": 1.65e6, "activity call": "inactive"}
{"predicted target": "GstZ1", "reagent no.": 1, "firefly reporter light, replicate 1": 96946, "firefly reporter light, replicate 2": 1.81e5, "Renilla control light, replicate 1": 5.73e5, "Renilla control light, replicate 2": 9.68e5, "activity call": "inactive"}
